Measured data: PubChem BioAssay AID504764 (Drosophila RNAi Screening Center, 2011)
The deposit covers about 22,000 reagents; this is an unselected part of those that have a named target and a result. Of all reagents, 403 (1.9%) got an active call. 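Unnormalised raw counts per well; ratio z-scores behind the hit calls and whether each hit raises or lowers signal are not deposited.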 Names joined by + are all predicted targets of the reagent. Not stated in the record: the amount of reagent.

Aim: 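Genome-wide screen for regulators of Notch-driven gene expression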 (primary screen)
Cells: Drosophila Kc167 cells
Reagent: long dsRNA against Drosophila genes
Duration: about 5 days (4 days dsRNA, then 24 h after transfection)
Treatment: transfection of constitutively active membrane-tethered Notch lacking the extracellular domain, read 24 h later
Measured: 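Firefly luciferase from an E(spl)m3 reporter with active Notch, plus control-promoter and uninduced reporter wells for normalisation; unnormalised counts, duplicate wells a and b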
Reading the numbers: induced reporter light, run 1, well a and induced reporter light, run 1, well b: higher = more light from the Notch target reporter with active Notch; control promoter light, run 1, well a and control promoter light, run 1, well b: higher = more light from the viral control promoter (cell number, transfection, viability); uninduced reporter light, run 1, well a: higher = more light from the Notch target reporter without active Notch
Rule for the call: 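Hit if the duplicate-averaged log2 ratio of induced to control-promoter light gives a plate-wise z beyond ±2, or induced to uninduced beyond ±1.8; weak-control or discordant-duplicate wells dropped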
Meaning of the calls: active = modifier hit (raised or lowered Notch signal); inactive = not a hit

Gene	amplicon	induced reporter light, run 1, well a	induced reporter light, run 1, well b	control promoter light, run 1, well a	control promoter light, run 1, well b	uninduced reporter light, run 1, well a	Outcome
rsh (GeneID 32253)	DRSC18966	58770	54285	76370	60495	5125	inactive
rsh (GeneID 32253)	DRSC19816	43905	46215	46905	34390	8438	inactive
nocte (GeneID 31976)	DRSC18123	1.47e5	1.14e5	1.33e5	1.22e5	14440	inactive
Klp67A + CG34456	DRSC10420	1.76e5	1.66e5	3.52e5	3.91e5	9195	active
Pdxk (GeneID 39066)	DRSC10419	1.71e5	1.97e5	3.06e5	2.52e5	5590	inactive
CG2574 (GeneID 32190)	DRSC19862	87665	85565	86965	1.24e5	5870	inactive
CG11125 (GeneID 35669)	DRSC06042	1.38e5	1.40e5	1.84e5	1.99e5	12295	inactive
jing (GeneID 35555)	DRSC04923	1.38e5	1.01e5	1.24e5	1.37e5	10245	inactive
jing (GeneID 35555)	DRSC04927	90000	1.09e5	1.28e5	1.25e5	4785	inactive
jing (GeneID 35555)	DRSC05000	1.79e5	1.92e5	1.39e5	1.24e5	16070	inactive
Psc (GeneID 36431)	DRSC07518	1.08e5	1.13e5	1.17e5	1.12e5	9720	inactive
CG6191 (GeneID 36513)	DRSC05938	57055	52435	30985	27080	10735	inactive
CG31345 (GeneID 41576)	DRSC14193	94110	92015	90435	74885	6125	inactive
CG31345 (GeneID 41576)	DRSC14847	59550	77640	59985	55190	5425	inactive
CG14835 (GeneID 38832)	DRSC10205	1.47e5	1.48e5	1.84e5	1.61e5	6990	inactive
CG5273 (GeneID 31021)	DRSC18612	1.09e5	1.25e5	1.90e5	2.56e5	8650	inactive
CG1674 (GeneID 43780)	DRSC17142	1.01e5	1.19e5	2.41e5	2.15e5	8710	inactive
CG16952 (GeneID 32546)	DRSC19759	86270	73605	77270	77580	11645	inactive
CG1344 (GeneID 35500)	DRSC04837	1.13e5	1.49e5	91365	1.02e5	7670	inactive
HmgZ (GeneID 37480)	DRSC03888	84080	79275	74310	85790	9010	inactive
HmgZ (GeneID 37480)	DRSC04620	37535	39825	32090	37710	1930	inactive

Called active (from the list above):
Gene	amplicon	induced reporter light, run 1, well a	induced reporter light, run 1, well b	control promoter light, run 1, well a	control promoter light, run 1, well b	uninduced reporter light, run 1, well a	Outcome
Klp67A + CG34456	DRSC10420	1.76e5	1.66e5	3.52e5	3.91e5	9195	active
